Test results published in paper PMC9032445.
Changes are numbered by the printed parent chain. Results are given in words; binding and its absence hold for the method and conditions named. For part of these data: Binding seen in cells or lysates may run through a third protein. Some entries that bind do so weakly or less than the wild type. For part of these data: Sequences can lack the tags named with a protein. Blank lines part the entries; values can stand above or below the binder they belong to.

Legend:
[1] = target: T1, Eme1 fragment (Eme1^1-130) containing SIM1 and SIM2 (S. pombe) (UniProt Q9C103); test: two-hybrid; LexA / B42-AD system in S. cerevisiae EGY48 + pSH18-34; Eme1^1-130 as bait; clones spotted onto 3% Gal -URA-TRP-HIS-LEU and 3% Gal -URA-TRP-HIS-Xgal plates, 30°C, 2 to 4 days
T1 sequence: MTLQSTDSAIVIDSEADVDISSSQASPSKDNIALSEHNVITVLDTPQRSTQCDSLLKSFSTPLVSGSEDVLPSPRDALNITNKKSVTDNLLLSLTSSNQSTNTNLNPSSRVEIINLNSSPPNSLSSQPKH

Mus81-6His (S. pombe) = target: T2, Mus81-6His (S. pombe) (UniProt P87231); test: pull-down; co-expression in E. coli Rosetta (DE3) pLysS; cleared lysate on Ni2+ agarose beads (Mus81-6His), imidazole eluate on amylose beads (MBP-Eme1), eluted with 10 mM maltose; 4°C
T2 sequence: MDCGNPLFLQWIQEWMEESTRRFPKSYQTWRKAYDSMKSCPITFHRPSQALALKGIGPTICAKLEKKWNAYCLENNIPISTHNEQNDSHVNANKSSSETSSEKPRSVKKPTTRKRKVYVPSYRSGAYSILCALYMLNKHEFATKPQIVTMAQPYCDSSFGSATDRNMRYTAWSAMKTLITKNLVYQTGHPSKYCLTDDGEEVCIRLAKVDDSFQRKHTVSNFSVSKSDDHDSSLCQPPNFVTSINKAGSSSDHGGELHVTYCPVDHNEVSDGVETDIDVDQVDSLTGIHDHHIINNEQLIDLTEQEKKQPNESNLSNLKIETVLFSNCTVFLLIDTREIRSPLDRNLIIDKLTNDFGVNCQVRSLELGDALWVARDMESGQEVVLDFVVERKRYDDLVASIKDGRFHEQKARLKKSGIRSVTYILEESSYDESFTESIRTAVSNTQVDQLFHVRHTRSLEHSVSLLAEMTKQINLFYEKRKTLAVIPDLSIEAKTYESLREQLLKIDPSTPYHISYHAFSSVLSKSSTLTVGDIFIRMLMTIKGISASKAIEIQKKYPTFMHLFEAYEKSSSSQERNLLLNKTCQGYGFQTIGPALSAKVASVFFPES

binding [1]: binds
B1: Pmt3, the unique S. pombe SUMO ortholog (protein, UniProt O13351 1-117)
chain: MSESPSANISDADKSAITPTTGDTSQQDVKPSTEHINLKVVGQDNNEVFFKIKKTTEFSKLMKIYCARQGKSMNSLRFLVDGERIRPDQTPAELDMEDGDQIEAVLEQLGGCTHLCL

binding (Mus81-6His (S. pombe)): binds
B2: MBP-Eme1 (wild type) (protein, UniProt Q9C103 1-735)
chain: MTLQSTDSAIVIDSEADVDISSSQASPSKDNIALSEHNVITVLDTPQRSTQCDSLLKSFSTPLVSGSEDVLPSPRDALNITNKKSVTDNLLLSLTSSNQSTNTNLNPSSRVEIINLNSSPPNSLSSQPKHQEFHLFHTPTIPRTTQLSSKTSSPIVIPDDNEQVASPLSKKAASLTSSPLKDFQSSPPLSTVLQKSHSLHDILLDTNDDDHFPFTQSPLTKTKSFNDALTSSSSILKPCMPSIASPTSNRLSHAPSTPNLFPNQDSSNTIDLINNRSKTSVENQERTFNLTSDVHLDSPTSPSKHSSIEPNTSQEDSFQELPSLNKLSIQSRAFKKMRLPKISRTTDTPPASTSNSNKKNLDKLKKMRKLCSRSLEPYELDSNTQRKRKRYEDSLKKSKTLDKVDSLNRKMAKELDRKNSKELQKINKVKRTKEECLSEIILLSPDDWASSWYSTVRSQLDSYNCQFVVNSNQPKDSIMWKRKVNNVFNSSTNRFELSIEHEQIEPFALLRLKCRDFIKYIEEDQADTFFHEMSEKFKGCKLILLLEGIPNYFKSLKAELNRQYAAAVNSGTRPLLFGSLSKYQNFTKEKLESEIVRFSFEHSILINTSNDEKETAQWIVSFTGDIALSRYKHFSKFSARASTTEIGHVKSADRIENSLNFMLRQILRVTPNIANAICDQFDSIPSLIHHLKTHGEESLTNVVIQSSISERNLGPVLSRRIYNTFLCKEASSDAP

binding (Mus81-6His (S. pombe)): binds
B3: MBP-Eme1^8AQ (all eight SQ/TQ sites mutated to AQ) (protein, UniProt Q9C103 1-735)
chain: B2 chain with S23A, T50A, S126A, T145A, T215A, S313A, T384A, S458A
